Earlier results in paper PMC11219945, “Assessing genotoxic effects of chemotherapy agents by a robust in vitro assay based on mass spectrometric quantification of γ-H2AX in HepG2 cells” (Frontiers in Pharmacology, 2024).
Counter-ions that a name gives are not always drawn.

Details: Table 1; cited from earlier work

Q: Which Required metabolic activation does the source give for `COc1cccc2c1C(=O)c1c(O)c3c(c(O)c1C2=O)C[C@@](O)(C(=O)CO)C[C@@H]3O[C@H]1C[C@H](N)[C@H](O[C@@H]2CCCCO2)[C@H](C)O1` [Pirarubicin] here?
A: −

Q: Which Required metabolic activation does the source give for `COc1cc([C@@H]2c3cc4c(cc3[C@@H](O[C@@H]3O[C@@H]5CO[C@@H](c6cccs6)O[C@H]5[C@H](O)[C@H]3O)[C@H]3COC(=O)[C@H]23)OCO4)cc(OC)c1O` [Teniposide] here?
A: −

Q: With `N.N.[Cl][Pt][Cl]` [Cisplatin] as the compound, how does the Required metabolic activation read?
A: −

Q: With `CC[C@]1(O)C[C@H]2CN(CCc3c([nH]c4ccccc34)[C@@](C(=O)OC)(c3cc4c(cc3OC)N(C=O)[C@H]3[C@@](O)(C(=O)OC)[C@H](OC(C)=O)[C@]5(CC)C=CCN6CC[C@]43[C@@H]65)C2)C1` [Vincristine] as the compound, how does the Required metabolic activation read?
A: −

Q: For `CC/C(=C(\c1ccccc1)c1ccc(OCCN(C)C)cc1)c1ccccc1` [Tamoxifen], which Required metabolic activation is on record?
A: +

Q: Which Required metabolic activation does the source give for `CN(C)/N=N/c1[nH]cnc1C(N)=O` [Dacarbazine] here?
A: +

Q: With `O=c1[nH]cc(F)c(=O)[nH]1` [5-fluorouracil] as the compound, how does the Required metabolic activation read?
A: −

Q: With `O=C1[O][Pt]2([NH][C@@H]3CCCC[C@H]3[NH]2)[O]C1=O` [Oxaliplatin] as the compound, how does the Required metabolic activation read?
A: −

Q: With `CC[C@@]1(O)C(=O)OCc2c1cc1n(c2=O)Cc2cc3c(CN(C)C)c(O)ccc3nc2-1` [Topotecan] as the compound, how does the Required metabolic activation read?
A: −

Q: For `CCc1c2c(nc3ccc(OC(=O)N4CCC(N5CCCCC5)CC4)cc13)-c1cc3c(c(=O)n1C2)COC(=O)[C@]3(O)CC` [Irinotecan], which Required metabolic activation is on record?
A: −

Q: Which Required metabolic activation does the source give for `N.N.O=C([O-])C1(C(=O)[O-])CCC1.[Pt+2]` [Carboplatin] here?
A: −

Q: Which Required metabolic activation does the source give for `CC[C@@]1(O)C(=O)OCc2c1cc1n(c2=O)Cc2c-1nc1cc(F)c(C)c3c1c2[C@@H](N)CC3` [Exatecan] here?
A: −

Q: For `C[C@]12CCC(=O)C(O)=C1CC[C@@H]1[C@@H]2CC[C@]2(C)C(=O)CC[C@@H]12` [Formestane], which Required metabolic activation is on record?
A: −

Q: For `CCCCCCNC(=O)n1cc(F)c(=O)[nH]c1=O` [Carmofur], which Required metabolic activation is on record?
A: −

Q: With `C=C1C[C@@H]2[C@H](CC[C@]3(C)C(=O)CC[C@@H]23)[C@@]2(C)C=CC(=O)C=C12` [Exemestane] as the compound, how does the Required metabolic activation read?
A: −

Q: For `COc1cccc2c1C(=O)c1c(O)c3c(c(O)c1C2=O)C[C@@](O)(C(C)=O)C[C@@H]3O[C@H]1C[C@H](N)[C@H](O)[C@H](C)O1` [Daunorubicin], which Required metabolic activation is on record?
A: −

Q: For `NC(=O)NO` [Hydroxyurea], which Required metabolic activation is on record?
A: −

Q: For `N#Cc1ccc(C(c2ccc(C#N)cc2)n2cncn2)cc1` [Letrozole], which Required metabolic activation is on record?
A: −

Q: With `O=P1(N(CCCl)CCCl)NCCCO1` (stereo not drawn) [Cyclophosphamide] as the compound, how does the Required metabolic activation read?
A: +

Q: Which Required metabolic activation does the source give for `Sc1ncnc2nc[nH]c12` [6-mercaptopurine] here?
A: +

Q: With `CC(C)(C#N)c1cc(Cn2cncn2)cc(C(C)(C)C#N)c1` [Anastrozole] as the compound, how does the Required metabolic activation read?
A: −

Q: For `Nc1nc2nc[nH]c2c(=S)[nH]1` [Thioguanine], which Required metabolic activation is on record?
A: +

Q: With `O=c1[nH]c(=O)n(C2CCCO2)cc1F` (stereo not drawn) [Tegafur] as the compound, how does the Required metabolic activation read?
A: −

Q: Which Required metabolic activation does the source give for `COc1cccc2c1C(=O)c1c(O)c3c(c(O)c1C2=O)C[C@@](O)(C(=O)CO)C[C@@H]3O[C@H]1C[C@H](N)[C@@H](O)[C@H](C)O1` [Epirubicin hydrochloride] here?
A: −

Q: For `CCC1(c2ccc(N)cc2)CCC(=O)NC1=O` (stereo not drawn) [Aminoglutethimide], which Required metabolic activation is on record?
A: −

Q: With `CCC1=C[C@@H]2CN(C1)Cc1c([nH]c3ccccc13)[C@@](C(=O)OC)(c1cc3c(cc1OC)N(C)[C@H]1[C@@](O)(C(=O)OC)[C@H](OC(C)=O)[C@]4(CC)C=CCN5CC[C@]31[C@@H]54)C2` [Vinorelbine] as the compound, how does the Required metabolic activation read?
A: −

Q: With `COc1cccc2c1C(=O)c1c(O)c3c(c(O)c1C2=O)C[C@@](O)(C(=O)CO)C[C@@H]3O[C@H]1C[C@H](N)[C@H](O)[C@H](C)O1` [Doxorubicin] as the compound, how does the Required metabolic activation read?
A: −
